Some of the results follow. Repeats are few or missing, and single values can be far off.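 The apoptosis fraction was the count of cleaved-PARP antibody-stained nuclei relative to all DNA-stained nuclei, imaged in 1,536-well plates. Screening doses were set so most cells survived, and baseline and induced cleaved-PARP levels vary greatly across cell lines.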
How the values were obtained:
Assay in all cases: cleaved PARP positive nuclei fraction relative to DMSO control; melanoma cells; higher = more apoptosis
Settings in all cases: library dose: low library concentration; 72 h
501Mel = tested on: 501Mel
A101D = tested on: A101D
A2058 = tested on: A2058
A375 = tested on: A375
C32 = tested on: C32
CBRC008 = tested on: CBRC008 (line from a melanoma biopsy)
CBRC013 = tested on: CBRC013 (line from a melanoma biopsy)
CBRC014 = tested on: CBRC014 (line from a melanoma biopsy)
CBRC016 = tested on: CBRC016 (line from a melanoma biopsy)
CBRC017 = tested on: CBRC017 (line from a melanoma biopsy)
COLO792 = tested on: COLO792
COLO800 = tested on: COLO800
COLO829 = tested on: COLO829
G361 = tested on: G361
IPC-298 = tested on: IPC-298
IST-MEL1 = tested on: IST-MEL1
LB2518-MEL = tested on: LB2518-MEL
LOXIMVI = tested on: LOXIMVI
MEL-HO = tested on: MEL-HO

| Structure (SMILES) | cleaved PARP positive nuclei fraction (501Mel) | cleaved PARP positive nuclei fraction (A101D) | cleaved PARP positive nuclei fraction (A2058) | cleaved PARP positive nuclei fraction (A375) | cleaved PARP positive nuclei fraction (C32) | cleaved PARP positive nuclei fraction (CBRC008) | cleaved PARP positive nuclei fraction (CBRC013) | cleaved PARP positive nuclei fraction (CBRC014) | cleaved PARP positive nuclei fraction (CBRC016) | cleaved PARP positive nuclei fraction (CBRC017) | cleaved PARP positive nuclei fraction (COLO792) | cleaved PARP positive nuclei fraction (COLO800) | cleaved PARP positive nuclei fraction (COLO829) | cleaved PARP positive nuclei fraction (G361) | cleaved PARP positive nuclei fraction (IPC-298) | cleaved PARP positive nuclei fraction (IST-MEL1) | cleaved PARP positive nuclei fraction (LB2518-MEL) | cleaved PARP positive nuclei fraction (LOXIMVI) | cleaved PARP positive nuclei fraction (MEL-HO) |
| --- | --- | --- | --- | --- | --- | --- | --- | --- | --- | --- | --- | --- | --- | --- | --- | --- | --- | --- | --- |
| Clc1ccc(Nc2nnc(Cc3ccncc3)c3ccccc23)cc1 [vatalanib] + COc1cc2c(Oc3ccc4[nH]c(C)cc4c3F)ncnc2cc1OCCCN1CCCC1 [cediranib] (first compound 2 µM, partner dose 0.4 µM) | 109% | 90.4% | 64.1% | 45.3% | 80.6% | 211% | 85.8% | 102% | 20.8% | 84.5% | 118% | 31.5% | 119% | 102% | 49.8% | 97.8% | 291% | 49.2% | 74.9% |
| COCC[n+]1c2c(n(Cc3cnccn3)c1C)C(=O)c1ccccc1C2=O + COc1cc2c(Oc3ccc4[nH]c(C)cc4c3F)ncnc2cc1OCCCN1CCCC1 [cediranib] (first compound 0.0004 µM, partner dose 0.4 µM) | 83.7% | 27.7% | 167% | 158% | 23.5% | 2100% | 156% | 92.8% | 65.5% | 82.8% | 191% | 56.2% | 104% | 102% | 131% | 80.2% | 73.7% | 62.2% | 63.8% |
| Cc1nc(Nc2ncc(C(=O)Nc3c(C)cccc3Cl)s2)cc(N2CCN(CCO)CC2)n1 [dasatanib] + OCCn1cc(-c2cnc3nnn(Cc4ccc5ncccc5c4)c3n2)cn1 [PF04217903] (first compound 0.004 µM, partner dose 1 µM) | 90.3% | 79.3% | 106% | 108% | 233% | 26.3% | 83.4% | 85.8% | 29.4% | 90.3% | 150% | 80.1% | 103% | 49.9% | 106% | 60.9% | 32.9% | 269% | 116% |
| C=CCNC1=C2C[C@@H](C)C[C@H](OC)[C@H](O)[C@@H](C)/C=C(\C)[C@H](OC(N)=O)[C@@H](OC)/C=C\C=C(/C)C(=O)NC(=CC1=O)C2=O [Tanespimycin] + CN(C)S(=O)(=O)c1ccc2c(c1)/C(=C/c1cc3c([nH]1)CCCC3)C(=O)N2 [SU6656] (first compound 0.002 µM, partner dose 0.4 µM) | 295% | 755% | 180% | 70.1% | 858% | 80.7% | 140% | 102% | 240% | 96.2% | 127% | 85.7% | 216% | 119% | 92.9% | 49.2% | 47.8% | 31.1% | 34.4% |
| C[C@@H]1CCN(C(=O)CC#N)C[C@@H]1N(C)c1ncnc2[nH]ccc12 + O=C(Nc1cccc(Cl)c1)Nc1ncc(CCNc2ncnc3ccsc23)s1 [SNS314] (first compound 1 µM, partner dose 0.0008 µM) | 64.6% | 18.7% | 91.8% | 46.6% | 136% | 133% | 127% | 84.9% | 92.9% | 92.3% | 95.3% | 112% | 61.3% | 36.3% | 81.6% | 60.9% | 45.7% | 60.3% | 57.8% |
| OCc1c[nH]c2ccccc12 [Indole-3-carbinol] + C[C@@H]1CCN(C(=O)CC#N)C[C@@H]1N(C)c1ncnc2[nH]ccc12 [CP690550] (first compound 0.8 µM, partner dose 1 µM) | 95.1% | 77% | 88.8% | 126% | 125% | 105% | 113% | 77.8% | 246% | 88.2% | 103% | 75.5% | 37% | 80.6% | 29.5% | 94.7% | 103% | 157% | 60.2% |
| Cc1cc(N2CCOCC2)cc2[nH]c(-c3c(NC[C@@H](O)c4cccc(Cl)c4)cc[nH]c3=O)nc12 + O=C(Nc1cccc(Cl)c1)Nc1ncc(CCNc2ncnc3ccsc23)s1 [SNS314] (first compound 0.2 µM, partner dose 0.0008 µM) | 90.4% | 74.1% | 92.8% | 134% | 134% | 1000% | 185% | 93.1% | 34.7% | 106% | 122% | 157% | 100% | 36.6% | 105% | 99.6% | 68.2% | 23.4% | 27.8% |
| Cn1nnc2c(C(N)=O)ncn2c1=O [temozolomide] + Cc1ccc(NC(=O)c2cccc(N(C)C)c2)cc1NC(=O)c1ccc(O)cc1 [ZM336372] (first compound 2 µM, partner dose 2 µM) | 91.4% | 89.1% | 130% | 47.5% | 85.6% | 85.7% | 91.2% | 137% | 85.2% | 99.9% | 67.5% | 72.6% | 59.7% | 125% | 80% | 101% | 52.2% | 72.3% | 34.6% |
| C=CCn1c(=O)c2cnc(Nc3ccc(N4CCN(C)CC4)cc3)nc2n1-c1cccc(C(C)(C)O)n1 + Cc1cc(N2CCOCC2)cc2[nH]c(-c3c(NC[C@@H](O)c4cccc(Cl)c4)cc[nH]c3=O)nc12 [BMS536924] (first compound 0.02 µM, partner dose 0.2 µM) | 229% | 44% | 53.7% | 557% | 125% | 191% | 162% | 118% | 161% | 177% | 90% | 107% | 115% | 51.6% | 51.4% | 130% | 112% | 97.1% | 120% |

Full records from above. Values in the order: cleaved PARP positive nuclei fraction (501Mel)	cleaved PARP positive nuclei fraction (A101D)	cleaved PARP positive nuclei fraction (A2058)	cleaved PARP positive nuclei fraction (A375)	cleaved PARP positive nuclei fraction (C32)	cleaved PARP positive nuclei fraction (CBRC008)	cleaved PARP positive nuclei fraction (CBRC013)	cleaved PARP positive nuclei fraction (CBRC014)	cleaved PARP positive nuclei fraction (CBRC016)	cleaved PARP positive nuclei fraction (CBRC017)	cleaved PARP positive nuclei fraction (COLO792)	cleaved PARP positive nuclei fraction (COLO800)	cleaved PARP positive nuclei fraction (COLO829)	cleaved PARP positive nuclei fraction (G361)	cleaved PARP positive nuclei fraction (IPC-298)	cleaved PARP positive nuclei fraction (IST-MEL1)	cleaved PARP positive nuclei fraction (LB2518-MEL)	cleaved PARP positive nuclei fraction (LOXIMVI)	cleaved PARP positive nuclei fraction (MEL-HO)
Cc1nc(Nc2ncc(C(=O)Nc3c(C)cccc3Cl)s2)cc(N2CCN(CCO)CC2)n1 [dasatanib] + OCCn1cc(-c2cnc3nnn(Cc4ccc5ncccc5c4)c3n2)cn1 [PF04217903] (first compound 0.004 µM, partner dose 1 µM) in the list: 90.3%	79.3%	106%	108%	233%	26.3%	83.4%	85.8%	29.4%	90.3%	150%	80.1%	103%	49.9%	106%	60.9%	32.9%	269%	116%
C=CCn1c(=O)c2cnc(Nc3ccc(N4CCN(C)CC4)cc3)nc2n1-c1cccc(C(C)(C)O)n1 + Cc1cc(N2CCOCC2)cc2[nH]c(-c3c(NC[C@@H](O)c4cccc(Cl)c4)cc[nH]c3=O)nc12 [BMS536924] (first compound 0.02 µM, partner dose 0.2 µM) in the list: 229%	44%	53.7%	557%	125%	191%	162%	118%	161%	177%	90%	107%	115%	51.6%	51.4%	130%	112%	97.1%	120%

Reference: the supplement of paper PMC4604168 (melanoma cell lines)
